# Results published in paper PMC10237670.
# The chains behind the UniProt entries cited, without tags or fusion partners. Residues count along the entry.
# UniProt P54132, 636-1298 K869A/K870A: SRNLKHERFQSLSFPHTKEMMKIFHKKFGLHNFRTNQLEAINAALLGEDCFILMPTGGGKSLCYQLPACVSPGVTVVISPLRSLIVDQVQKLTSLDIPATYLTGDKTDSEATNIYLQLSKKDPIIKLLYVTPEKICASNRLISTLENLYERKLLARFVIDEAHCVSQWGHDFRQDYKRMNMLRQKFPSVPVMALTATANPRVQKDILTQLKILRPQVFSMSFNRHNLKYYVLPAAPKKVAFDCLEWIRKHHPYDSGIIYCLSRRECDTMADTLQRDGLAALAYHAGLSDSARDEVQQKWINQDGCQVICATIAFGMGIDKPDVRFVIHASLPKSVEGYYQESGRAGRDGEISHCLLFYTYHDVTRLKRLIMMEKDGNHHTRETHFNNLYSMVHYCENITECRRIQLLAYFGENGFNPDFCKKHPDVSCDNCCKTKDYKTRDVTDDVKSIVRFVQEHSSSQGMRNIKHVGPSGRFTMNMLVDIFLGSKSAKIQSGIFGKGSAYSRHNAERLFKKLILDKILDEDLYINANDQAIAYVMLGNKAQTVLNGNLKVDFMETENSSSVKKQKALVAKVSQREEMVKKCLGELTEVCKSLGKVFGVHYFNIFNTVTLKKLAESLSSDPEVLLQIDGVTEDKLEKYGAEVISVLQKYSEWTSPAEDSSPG
# The exact form of at least one protein or probe is not confirmed.
# Target: BLMcore K869A K870A (Homo sapiens) (UniProt P54132)
# Test: EMSA
# Conditions: 5 mM MgCl2, smear, no distinct shift (text: weakened binding), estimated apparent KD; 50 mM Tris-HCl pH 7.5, 50 mM KCl, 5 mM MgCl2, 1 mM DTT, 0.1 mg/mL BSA, 40 nM DNA, 30 min room temperature; 5% gel in TBE + 100 mM KCl at 4 C; recombinant protein; residues 636-1298; label: 3'-FAM on oAV320 (strand 2)
sequence,measurement,value
TGGCGACGGCAGCGAGGCTTAGGGTTAGCGTTAGCGTTAGGGTTTTTTTTTTTTTTT / GCCTCGCTGCCGTCGCCA [partial dsDNA with 3' ssDNA overhang (oRC32/FAM-oAV320)],Kd,62.5 nM
